Some of these results come from one statement about several compounds together.
Target: T1, PRK2 (Homo sapiens, UniProt Q16513)
T1 construct: endogenous in cells; host or cells: R-1 (Huh7-derived HCV replicon cells) and Huh7
Experiment: PRK2 phosphorylation (Thr816) and PRK2 level in R-1 cells by Western blot
Assay type: cell-based
Conditions: R-1 cell line, 10 or 20 μM, 48 hours, phospho-PRK2 antibody

Protein sequences, listed by entry. Tags and fused reporters are not part of them. Lines headed by an entry give the natural chain unless they say otherwise; changes in a name come on top.
UniProt Q16513: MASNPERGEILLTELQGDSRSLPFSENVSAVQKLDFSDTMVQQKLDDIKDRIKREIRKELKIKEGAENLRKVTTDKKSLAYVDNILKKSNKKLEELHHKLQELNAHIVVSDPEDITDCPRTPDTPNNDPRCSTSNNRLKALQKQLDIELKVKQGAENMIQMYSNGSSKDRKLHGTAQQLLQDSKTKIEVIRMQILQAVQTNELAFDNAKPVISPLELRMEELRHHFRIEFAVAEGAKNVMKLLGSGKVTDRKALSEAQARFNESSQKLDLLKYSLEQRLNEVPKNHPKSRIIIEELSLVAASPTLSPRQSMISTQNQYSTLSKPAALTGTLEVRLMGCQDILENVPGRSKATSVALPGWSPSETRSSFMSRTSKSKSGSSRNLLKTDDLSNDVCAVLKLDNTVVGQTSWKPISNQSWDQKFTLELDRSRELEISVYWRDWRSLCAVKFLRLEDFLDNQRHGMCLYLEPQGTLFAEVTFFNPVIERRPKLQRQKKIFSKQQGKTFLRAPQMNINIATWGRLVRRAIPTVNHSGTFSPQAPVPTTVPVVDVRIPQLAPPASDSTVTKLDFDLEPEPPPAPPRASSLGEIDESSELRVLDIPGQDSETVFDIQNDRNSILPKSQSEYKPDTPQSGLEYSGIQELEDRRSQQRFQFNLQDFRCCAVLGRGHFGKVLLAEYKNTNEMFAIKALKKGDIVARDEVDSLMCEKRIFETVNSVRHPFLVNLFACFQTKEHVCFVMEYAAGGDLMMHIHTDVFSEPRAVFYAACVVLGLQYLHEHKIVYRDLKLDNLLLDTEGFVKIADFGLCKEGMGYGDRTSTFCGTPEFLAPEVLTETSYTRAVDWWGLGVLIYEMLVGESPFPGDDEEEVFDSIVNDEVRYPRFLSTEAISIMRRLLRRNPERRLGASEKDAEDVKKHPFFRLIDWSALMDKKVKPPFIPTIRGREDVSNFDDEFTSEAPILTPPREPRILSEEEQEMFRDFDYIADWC

SMILES: CN1CCC(C#N)(c2ccccc2)CC1 [compound 13, 1-methyl-4-phenylpiperidine-4-carbonitrile]
- effect of inhibiting PRK2 phosphorylation: ≥ 50%
